Test results published in patent publication US20200362021A1.
Substitutions are numbered along the chain they refer to. Results are given in words; binding and its absence hold for the method and conditions named.

T1: Biotin-APL27-14
T1 sequence (peptide, N-terminal biotin): GPGAWQGGRRKFRR

B1: anti-apelin mAb C4 (antibody, V domains shown)
VH: LEQSGGGAEGGLVKPGGSLELCCKASGFTLSSSYWICWVRQAPGKGLEWIGCIHYGSSGTAYYASWVNGRFTLSRDIDQSTGCLQLNSLTAADTAMYYCARFLSDMYYYNLWGPGTLVTVSS
VL: QVLTQTPASVSAAVGGTVTINCQASQSIYNNNQLSWYQQKPGQPPKLLIYYASTLASGVSSRFKGSGSGTQFTLTISGVQCDDAATYYCQGQFNCRSADCHAFGGGTEVVVK
B2: anti-apelin mAb C5 (antibody, V domains shown)
VH: QSVEESGGRLVTPGTPLTLTCTVSGFSLSGAWMNWVRQAPGKGLEWIGVVSSDDNIYYADWAKGRFTISKTSTTVDLKLTSPTTEDTATYFCARNLGTIWGPGTLVTVSS
VL: QVLTQTESPVSAAVGGTVTINCQSSQSVWSNYLSWFQQKPGQPPKVLIYGTSKLPSGVPSRFSGSGSGTEFTLTINDLECDDAATYYCAGGYSGHIYSFGGGTEVVVK
B3: anti-apelin mAb C27 (antibody, V domains shown)
VH: QSVEESGGRLVTPGGSLTLTCTVSGIDLINAWMNWVRQAPGKGLEWIGTTTDDDTIYYANWAKGRFTISRTSTTVDLKVTSLTSEDTATYFCSKGRIWGPGTLVTVSL
VL: QVLTQTPASVSAAVGGTVTINCQASQSVYDGNWLCWYQQKPGQPPKRLIYKASTLESGVPSRFKGSGSGTQFTLTISDLECDDAATYYCQGGFTSNIYPFAGGTEVVVK
B4: anti-apelin mAb C1 (antibody, V domains shown)
VH: QSLEESGGRLVTPGGSLTLTCTVSGFSLSSYAMDWVRQAPGKGLEWIGVIAPNGATYYPTWARGRFTISKTSTTVDLKMTSLTAADTATYFCATYPIDAGANIWGPGTLVTVSS
VL: DPVLTQTPSSVSAAVGGTVTIGCQSSESVDNNNQLSWYQQKSGQPPKRLMYYVSTLDSGVPSRFKGSGSGTHFTLTISGVQCYDAATYYCQGGYISNLYPFGGGTEVVVK
B5: anti-apelin mAb C22 (antibody, V domains shown)
VH: QSLEESGGRLVTPGGSLTLTCTVSGIDLNNYAMDWVRQAPGKGLEWIGVIAPNHYTYYPTWARGRFTISKTSTTVDLKMTSLTTEDTATYFCATYPIETGSNIWGPGTLVIVSS
VL: B4 VL with G22S, N31M, Q39H, H72Q, Y83D, A86G
B6: anti-apelin mAb C16 (antibody, V domains shown)
VH: B5 VH with N30S, S81R, T99S
VL: B4 VL with D30G, N31M, S42P, H72Q, T74S, G79D, V80L, Q81E, Y83D, A86G
B7: anti-apelin mAb C6 (antibody, V domains shown)
VH: QSLEESGGRLVKPDETLTLTCTVSGIDLSNYAMDWVRQAPGKGLEWIGVIAPNRRTYYPTWARGRFTISKTSSTTVDLKMTSLTTEDTATYFCATYPIEPGANIWGPGTLVTVSS
VL: B4 VL with S10P, A14P, N31Y, S42P, H72Q, G79D, V80L, Q81E, Y83D, L98I
B8: anti-apelin mAb C26 (antibody, V domains shown)
VH: QEQLEESGGGLVQPEGSLTLTCTASGFTLSNYWMSWVRQAPGKGLVWIGCIDIGSDDTYYASWAKGRFTISRTSSTTVTLQVTSLTAADTATYFCARSGGLWGPGTLVTVSS
VL: QVLTQTPSSTSAAVGGTVTINCQASQSVYNNNDLAWYQQKPGQPPKRLIYEASKLASGVPSRFSGSGSGTQFTLTISDLECDDAATYYCAGGWSGNFYVFGGGTEVVVK
B9: anti-apelin mAb C10 (antibody, V domains shown)
VH: QSLEESGGRLVTPGGSLTLTCTVSGIDLNSYAIDWVRQAPGKGLEWIGVIAPSGTTYYPTWAKGRFTISKTSTTVDLKVTGLTTEDTATYFCAAYPIDPGSNIWGPGTLVTVSS
VL: DPVLTQTPSSVSAAVGGTATIGCQSSESVDYGNQLSWYQQKPGQPPKRLAYYVSILDAGVPSRFKGSGSGTQFTLTISDLECDDAATYYCQGGYISNLYPFGGGTEVVVQ
B10: anti-apelin mAb C12 (antibody, V domains shown)
VH: QSLEESGGRLVTPGGSLTLTCTVSGIDLSSYAIDWVRQAPGKGLEWIGVIAPSSTTYYPTWAKGRFTISKTSSTTVDLKVIGLTTEDTATYFCAAYPIDPGSNVWGPGTLVTVSS
VL: B9 VL with A19V, A50T
B11: anti-apelin mAb C11 (antibody, V domains shown)
VH: QSLEESGGRLVSPGGSLTLTCTVSGIDLSSHAMDWVRQAPGKGLEWIGVIAPNDATYYPTWARGRFTISKTSTTVGLKMTRLTTEDTATYFCAAYPIDAGANVWGPGTLVTVSS
VL: DPMLTQTASPVSAHVGGTVTINCQSSESVDYNNQLSWYQQKPGQPPKRLMYYVSTLDSGVPSRFKGSGSGTQFSLTISDLECDDAGTYYCQGGYISNLYPFGGGTEVVVK
B12: anti-apelin mAb C20 (antibody, V domains shown)
VH: B5 VH with M33I, Y57C, T94A
VL: B11 VL with A8P, P10S, H14A, N22S, Y31M, T71I, Q72H, D83A
B13: anti-apelin mAb C14 (antibody, V domains shown)
VH: B11 VH with L3P, S12T, T22K, V23I, I26V, S30N, H31Y, F66L, G76D, A99V
VL: B11 VL with H14A
B14: C13 (antibody, V domains shown)
VH: QSLEESGGRLAKPGETLTLTCTVSGIDLNSHAVDWVRQAPGKGLEWIGVIGPGGNTYYASWAKGRFTISKTSSTTVDLKMTSLTAEDTATFFCATYPIYSGDNIWGPGTLVTVSS
VL: DPVLTQTPPSVSAAVGGTVTINCQSSESVDNNNQLSWYQQKVGQPPKRLMYYASTLDSGVPSRFKGGGSGTHFTLTITDLECDDAATYYCQGGTATNIYPFGGGTEVVVK
B15: anti-apelin mAb C7 (antibody, V domains shown)
VH: B7 VH with V11A, S29N, N30S, Y31H, N53D, R54T, P59A, T75S, D77E, T95A
VL: DPVLTQTPSPVSAPVGGTVTIGCQASESVDYNNQLSWYQQKPGQAPKRLMYYVSTLDSGVPSRFKGSGSGTQFTLTISDLECDDAATYYCQGGYPYNIYPFGGGTEVVVK
B16: anti-apelin mAb C17 (antibody, V domains shown)
VH: QSVEESGGRLVKPDETLTLTCAVSGIDLSSNAMNWVRQAPGEGLEWIGSMYTDGTTYYANWAKGRFTISRASSTTVDLKMTSLTAADTATYFCARGDIWGPGTLVTVSS
VL: QVLTQTASPVSAAVGGTVTISCQSSQSVYNNNWLAWFQQKPGQPPKRLIYGTSELASGVPSRFKGSGSGTQFTLTISGVQCDDAATYYCLGTYSSNIHVFGGGTEVVVK
B17: anti-apelin mAb C9 (antibody, V domains shown)
VH: QEQLEESGGDLVKPEGSLTLTCTASGFSFSSSYWICWVRQAPGKGLEWIACIYQSGDGRTWYASWAEGRFTISKTSPTTVTLQMASLTAADTATYFCARCPHNTYSHFDLWGPSTLVTVSS
VL: DIVMTQTPASVEAAVGGTVTIKCQASQSINSWLSWYQQKPGQPPKPLIYGASNLASGVPSRFKGSGSGTQFTLTISDLECADAATYSCLGYYYSSYNSVGFWAFGGGTEVVVK

Biological target: T1, Biotin-APL27-14
Assay: ELISA, peptide on neutravidin plate, mAb 200 ng/ml, A405

| binding | Binder |
| --- | --- |
| no binding (tested: 200 ng/ml) | B1 |
| no binding (tested: 200 ng/ml) | B2 |
| no binding (tested: 200 ng/ml) | B3 |
| no binding (tested: 200 ng/ml) | B4 |
| no binding (tested: 200 ng/ml) | B5 |
| no binding (tested: 200 ng/ml) | B6 |
| no binding (tested: 200 ng/ml) | B7 |
| no binding (tested: 200 ng/ml) | B8 |
| no binding (tested: 200 ng/ml) | B9 |
| no binding (tested: 200 ng/ml) | B10 |
| no binding (tested: 200 ng/ml) | B11 |
| no binding (tested: 200 ng/ml) | B12 |
| no binding (tested: 200 ng/ml) | B13 |
| no binding (tested: 200 ng/ml) | B14 |
| no binding (tested: 200 ng/ml) | B15 |
| no binding (tested: 200 ng/ml) | B16 |
| no binding (tested: 200 ng/ml) | B17 |
